# Test results: the supplement of paper PMC8728848
# The list shows a part of the results.
# B1: LysMD3 (Homo sapiens), Q7Z3D4 (protein)
# chain: MAGRHQNRSFPLPGVQSSGQVHAFGNCSDSDILEEDAEVYELRSRGKEKVRRSTSRDRLDDIIVLTKDIQEGDTLNAIALQYCCTVADIKRVNNLISDQDFFALRSIKIPVKKFSSLTETLCPPKGRQTSRHSSVQYSSEQQEILPANDSLAYSDSAGSFLKEVDRDIEQIVKCTDNKRENLNEVVSALTAQQMRFEPDNKNTQRKDPYYGADWGIG
# How the values were obtained:
# Assay in all cases: glycan array binding signal (z-score within array); higher = stronger binding
# Details in all cases: glycan notation: IUPAC condensed, linker removed
# [1] = biological target: Neu5Ac(a2-6)GlcNAc(b1-4)GlcNAc(b1-4)GlcNAc
# Outline: (§1)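 The binding signal is a Z-score computed within each array and averaged over linkers. Arrays of the same protein sequence at different concentrations or buffers were also averaged together. Data originate from 3228 arrays in the Consortium for Functional Glycomics database, kept only where the protein sequence was available.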
# Neu5Ac(a2-8)Neu5Ac = biological target: Neu5Ac(a2-8)Neu5Ac
# Outline: as §1
# [2] = biological target: Neu5Ac(a2-8)Neu5Ac(a2-3)Gal(b1-3)GalNAc(b1-4)[Neu5Ac(a2-3)]Gal(b1-4)Glc
# Outline: as §1
# [3] = biological target: Neu5Ac(a2-8)Neu5Ac(a2-3)Gal(b1-3)GalNAc(b1-4)[Neu5Ac(a2-8)Neu5Ac(a2-3)]Gal(b1-4)Glc
# Outline: as §1
# [4] = biological target: Neu5Ac(a2-8)Neu5Ac(a2-3)Gal(b1-4)Glc
# Outline: as §1
# [5] = biological target: Neu5Ac(a2-8)Neu5Ac(a2-3)Gal(b1-4)GlcNAc
# Outline: as §1
# [6] = biological target: Neu5Ac(a2-8)Neu5Ac(a2-3)[Gal(b1-3)GalNAc(b1-4)]Gal(b1-4)Glc
# Outline: as §1
# [7] = biological target: Neu5Ac(a2-8)Neu5Ac(a2-3)[GalNAc(b1-4)]Gal(b1-4)Glc
# Outline: as §1
# [8] = biological target: Neu5Ac(a2-8)Neu5Ac(a2-8)Neu5Ac
# Outline: as §1
# [9] = biological target: Neu5Ac(a2-8)Neu5Ac(a2-8)Neu5Ac(a2-3)Gal(b1-4)Glc
# Outline: as §1
# [10] = biological target: Neu5Ac(a2-8)Neu5Ac(a2-8)Neu5Ac(a2-3)[Gal(b1-3)GalNAc(b1-4)]Gal(b1-4)Glc
# Outline: as §1
# [11] = biological target: Neu5Ac(a2-8)Neu5Ac(a2-8)Neu5Ac(a2-3)[GalNAc(b1-4)]Gal(b1-4)Glc
# Outline: as §1
# [12] = biological target: Neu5Ac(a2-8)Neu5Ac(a2-8)Neu5Ac(a2-8)Neu5Ac(a2-3)[GalNAc(b1-4)]Gal(b1-4)Glc
# Outline: as §1
# [13] = biological target: Neu5Ac(a2-8)Neu5Gc(a2-3)Gal(b1-4)GlcNAc
# Outline: as §1
# [14] = biological target: Neu5Ac(b2-6)Gal(b1-4)GlcNAc
# Outline: as §1
# Neu5Ac(b2-6)GalNAc = biological target: Neu5Ac(b2-6)GalNAc
# Outline: as §1
# [15] = biological target: Neu5Ac9Ac(a2-3)Gal(b1-3)GlcNAc
# Outline: as §1
# [16] = biological target: Neu5Ac9Ac(a2-3)Gal(b1-4)GlcNAc
# Outline: as §1
# [17] = biological target: Neu5Ac9Ac(a2-6)Gal(b1-4)GlcNAc
# Outline: as §1
# [18] = biological target: Neu5Gc(a2-3)Gal(b1-3)GlcNAc
# Outline: as §1
# [19] = biological target: Neu5Gc(a2-3)Gal(b1-3)[Fuc(a1-4)]GlcNAc
# Outline: as §1
# Neu5Gc(a2-3)Gal(b1-4)Glc = biological target: Neu5Gc(a2-3)Gal(b1-4)Glc
# Outline: as §1
# [20] = biological target: Neu5Gc(a2-3)Gal(b1-4)GlcNAc
# Outline: as §1
# [21] = biological target: Neu5Gc(a2-3)Gal(b1-4)GlcNAc(b1-3)Gal(b1-4)GlcNAc(b1-2)Man(a1-3)[Neu5Gc(a2-3)Gal(b1-4)GlcNAc(b1-3)Gal(b1-4)GlcNAc(b1-2)Man(a1-6)]Man(b1-4)GlcNAc(b1-4)GlcNAc
# Outline: as §1
# [22] = biological target: Neu5Gc(a2-3)Gal(b1-4)[Fuc(a1-3)]GlcNAc
# Outline: as §1
# [23] = biological target: Neu5Gc(a2-6)Gal(b1-4)GlcNAc
# Outline: as §1
# Neu5Gc(a2-6)GalNAc = biological target: Neu5Gc(a2-6)GalNAc
# Outline: as §1
# [24] = biological target: Neu5Gc(a2-8)Neu5Ac(a2-3)Gal(b1-4)GlcNAc
# Outline: as §1
# [25] = biological target: Neu5Gc(a2-8)Neu5Gc(a2-3)Gal(b1-4)GlcNAc
# Outline: as §1
# [26] = biological target: Neu5Gc(a2-8)Neu5Gc(a2-3)Gal(b1-4)GlcNAc(b1-3)Gal(b1-4)GlcNAc
# Outline: as §1
# [27] = biological target: Neu5Gc(a2-8)Neu5Gc(a2-6)Gal(b1-4)GlcNAc
# Outline: as §1
# [28] = biological target: Neu5Gc(b2-6)Gal(b1-4)GlcNAc
# Outline: as §1
binder,measurement,setting,value
B1,glycan array binding signal (z-score),[1],-0.725
same,glycan array binding signal (z-score),Neu5Ac(a2-8)Neu5Ac,-0.273
same,glycan array binding signal (z-score),[2],0.988
same,glycan array binding signal (z-score),[3],1.66
same,glycan array binding signal (z-score),[4],-0.753
same,glycan array binding signal (z-score),[5],-0.512
same,glycan array binding signal (z-score),[6],-0.411
same,glycan array binding signal (z-score),[7],0.512
same,glycan array binding signal (z-score),[8],-0.371
same,glycan array binding signal (z-score),[9],-1.05
same,glycan array binding signal (z-score),[10],-0.812
same,glycan array binding signal (z-score),[11],-0.862
same,glycan array binding signal (z-score),[12],0.551
same,glycan array binding signal (z-score),[13],-0.377
same,glycan array binding signal (z-score),[14],-0.214
same,glycan array binding signal (z-score),Neu5Ac(b2-6)GalNAc,-0.267
same,glycan array binding signal (z-score),[15],-0.019
same,glycan array binding signal (z-score),[16],-0.085
same,glycan array binding signal (z-score),[17],0.145
same,glycan array binding signal (z-score),[18],-0.338
same,glycan array binding signal (z-score),[19],-0.44
same,glycan array binding signal (z-score),Neu5Gc(a2-3)Gal(b1-4)Glc,-0.326
same,glycan array binding signal (z-score),[20],-0.032
same,glycan array binding signal (z-score),[21],1.38
same,glycan array binding signal (z-score),[22],-0.174
same,glycan array binding signal (z-score),[23],-0.344
same,glycan array binding signal (z-score),Neu5Gc(a2-6)GalNAc,-0.533
same,glycan array binding signal (z-score),[24],0.016
same,glycan array binding signal (z-score),[25],-0.391
same,glycan array binding signal (z-score),[26],0.616
same,glycan array binding signal (z-score),[27],0.066
same,glycan array binding signal (z-score),[28],-0.533

# Rewritten as tab-separated lines: entries from further up.
binder	measurement	setting	value
B1	glycan array binding signal (z-score)	[4]	-0.753
same	glycan array binding signal (z-score)	[5]	-0.512
